From PMC9529947 come the findings set out here.

In test [1] the target is T1, RhoGDIα (endogenous, 293-CDC42 cells) (human (endogenous in HEK293T-derived 293-CDC42 cells)) (UniProt P52565).
T1 sequence: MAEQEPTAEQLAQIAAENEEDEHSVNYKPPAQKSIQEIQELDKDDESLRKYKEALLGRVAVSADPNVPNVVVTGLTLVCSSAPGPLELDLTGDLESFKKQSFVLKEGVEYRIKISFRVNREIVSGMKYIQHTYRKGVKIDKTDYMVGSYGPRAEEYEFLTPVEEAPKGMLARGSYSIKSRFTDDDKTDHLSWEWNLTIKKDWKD
In words: proximity ligation; Duolink In Situ Orange kit on fixed, permeabilised 293-CDC42 cells, control or LNX1-overexpressing; probes RhoC/RhoGDIα or HA/RhoGDIα.

Test [2] addresses RhoC R188S (overexpressed, Figure S2) (human (from the printed accession)). In words: co-IP; RhoC immunoprecipitated from cells overexpressing RhoC (wild type or R188S) with or without LNX1; RhoGDIα detected (Figure S2).
In test [3] the target is wild type RhoC (overexpressed, Figure S2) (human (from the printed accession)). The description is as above.
The target of test [4] is PAFAH1B3-Myc-FLAG (human (from the printed accession)). In words: co-IP; EZview Red Anti-FLAG M2 Affinity Gel on lysates of co-transfected HEK293T cells; FLAG-tagged protein as bait, EGFP-tagged protein detected by blot.
In test [5] the target is FLAG-RHOC (human (from the printed accession)). The test is described as above.

Results are given in words; binding and its absence hold for the method and conditions named. Binding seen in cells or lysates may run through a third protein. For some assays here: Binding can be weak; no strength is given. For some assays here: Where a sequence is shown, tags or fusion partners need not be part of it.

Take RhoC (endogenous, 293-CDC42 cells): the binding result in test [1] is “binds”.

B1: RhoGDIα (co-immunoprecipitated with RhoC, Figure S2) (protein, UniProt P52565 1-204)
chain: T1 sequence
With B1, the binding entry in test [2] and in test [3] was “binds” in each case.

B2: EGFP-LIS1 (protein, UniProt P63005-1 1-410)
chain: MVLSQRQRDELNRAIADYLRSNGYEEAYSVFKKEAELDMNEELDKKYAGLLEKKWTSVIRLQKKVMELESKLNEAKEEFTSGGPLGQKRDPKEWIPRPPEKYALSGHRSPVTRVIFHPVFSVMVSASEDATIKVWDYETGDFERTLKGHTDSVQDISFDHSGKLLASCSADMTIKLWDFQGFECIRTMHGHDHNVSSVAIMPNGDHIVSASRDKTIKMWEVQTGYCVKTFTGHREWVRMVRPNQDGTLIASCSNDQTVRVWVVATKECKAELREHEHVVECISWAPESSYSSISEATGSETKKSGKPGPFLLSGSRDKTIKMWDVSTGMCLMTLVGHDNWVRGVLFHSGGKFILSCADDKTLRVWDYKNKRCMKTLNAHEHFVTSLDFHKTAPYVVTGSVDQTVKVWECR
Consider B2, for which the results for the binding result in test [4] and in test [5] were “binds” and “no binding”, respectively.
